Source: the supplement of paper PMC8920030
The source gives many values for each of these; only a part stands here. Where a SMILES comes first, the peptide text is derived from it. Bridges are numbered along the chain shown (N, C = ends). [ ]: non-standard residue; d: D form. The star is where a group is joined. Heptanoyl(5-Me) = CCC(C)CCCC(=O)*; Dab = NCC[C@H](N)C(=O)O

Assays:
Details in all cases: growth mode: biofilm, 24 h; exposure time: 24 h
tobramycin [1] = compound: T1, NC[C@H]1O[C@H](O[C@H]2[C@H](O)[C@@H](O[C@H]3O[C@H](CO)[C@@H](O)[C@H](N)[C@H]3O)[C@H](N)C[C@@H]2N)[C@H](N)C[C@@H]1O [tobramycin]; assay: minimum concentration of killing, 4-log CFU reduction of biofilm (MCK99.99); higher = more biofilm tolerance
Description: (§1)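 Clinical P. aeruginosa isolates were grown as static biofilms for 24 h at 37 °C in LB in half-area 96-well plates, then exposed for 24 h to tobramycin at 1, 4, 16, 64, 256 or […]. Surviving CFU were counted by spotting serial dilutions. MCK is the lowest tested concentration giving the stated log reduction in CFU versus an untreated control; '>1024' means the reduction was not reached at the top dose, and 1 is the lowest dose tested (≤1).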

colistin [2] = compound: T2, CCC(C)CCCC(=O)N[C@@H](CCN)C(=O)N[C@H](C(=O)N[C@@H](CCN)C(=O)N[C@H]1CCNC(=O)[C@H]([C@@H](C)O)NC(=O)[C@H](CCN)NC(=O)[C@H](CCN)NC(=O)[C@H](CC(C)C)NC(=O)[C@@H](CC(C)C)NC(=O)[C@H](CCN)NC1=O)[C@@H](C)O [colistin]; assay: minimum concentration eradicating biofilm below detection limit (MCK-E); higher = more biofilm tolerance
Description: as §1, with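 “colistin” for “tobramycin”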

colistin [3] = compound: T2, colistin; assay: minimum concentration of killing, 4-log CFU reduction of biofilm (MCK99.99); higher = more biofilm tolerance
Description: as §1, with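 “colistin” for “tobramycin”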

tobramycin [4] = compound: T1, tobramycin; assay: minimum concentration of killing, 2-log CFU reduction of biofilm (MCK99); higher = more biofilm tolerance
Description: as §1

tobramycin [5] = compound: T1, tobramycin; assay: minimum concentration eradicating biofilm below detection limit (MCK-E); higher = more biofilm tolerance
Description: as §1

tobramycin [6] = compound: T1, tobramycin; assay: minimum concentration of killing, 1-log CFU reduction of biofilm (MCK90); higher = more biofilm tolerance
Description: as §1

colistin [7] = compound: T2, colistin; assay: as above
Description: as §1, with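 “colistin” for “tobramycin”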

colistin [8] = compound: T2, colistin; assay: minimum concentration of killing, 2-log CFU reduction of biofilm (MCK99); higher = more biofilm tolerance
Description: as §1, with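 “colistin” for “tobramycin”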

Pseudomonas aeruginosa clinical isolate PSAE2325
minimum concentration of killing (tobramycin [1]): 4 µg/mL
minimum concentration eradicating biofilm below detection limit (colistin [2]): 256 µg/mL
minimum concentration of killing (colistin [3]): 256 µg/mL
minimum concentration of killing (tobramycin [4]): 4 µg/mL
minimum concentration eradicating biofilm below detection limit (tobramycin [5]): 64 µg/mL
minimum concentration of killing (tobramycin [6]): 4 µg/mL
minimum concentration of killing (colistin [7]): 256 µg/mL
minimum concentration of killing (colistin [8]): 256 µg/mL

Pseudomonas aeruginosa clinical isolate Psae1656
minimum concentration of killing (tobramycin [1]): 64 µg/mL
minimum concentration eradicating biofilm below detection limit (colistin [2]): 256 µg/mL
minimum concentration of killing (colistin [3]): 256 µg/mL
minimum concentration of killing (tobramycin [4]): 16 µg/mL
minimum concentration eradicating biofilm below detection limit (tobramycin [5]): 64 µg/mL
minimum concentration of killing (tobramycin [6]): 16 µg/mL
minimum concentration of killing (colistin [7]): 64 µg/mL
minimum concentration of killing (colistin [8]): 256 µg/mL

Pseudomonas aeruginosa clinical isolate Vb3320
minimum concentration of killing (tobramycin [1]): 4 µg/mL
minimum concentration eradicating biofilm below detection limit (colistin [2]): 256 µg/mL
minimum concentration of killing (colistin [3]): 256 µg/mL
minimum concentration of killing (tobramycin [4]): ≤ 1 µg/mL
minimum concentration eradicating biofilm below detection limit (tobramycin [5]): 64 µg/mL
minimum concentration of killing (tobramycin [6]): ≤ 1 µg/mL
minimum concentration of killing (colistin [7]): 16 µg/mL
minimum concentration of killing (colistin [8]): 256 µg/mL

Pseudomonas aeruginosa clinical isolate ZG205565
minimum concentration of killing (tobramycin [1]): 16 µg/mL
minimum concentration eradicating biofilm below detection limit (colistin [2]): 1020 µg/mL
minimum concentration of killing (colistin [3]): 256 µg/mL
minimum concentration of killing (tobramycin [4]): 16 µg/mL
minimum concentration eradicating biofilm below detection limit (tobramycin [5]): 64 µg/mL
minimum concentration of killing (tobramycin [6]): ≤ 1 µg/mL
minimum concentration of killing (colistin [7]): 64 µg/mL
minimum concentration of killing (colistin [8]): 64 µg/mL

Pseudomonas aeruginosa clinical isolate ZG205694
minimum concentration of killing (tobramycin [1]): 1020 µg/mL
minimum concentration eradicating biofilm below detection limit (colistin [2]): 256 µg/mL
minimum concentration of killing (colistin [3]): 256 µg/mL
minimum concentration of killing (tobramycin [4]): 256 µg/mL
minimum concentration eradicating biofilm below detection limit (tobramycin [5]): 1020 µg/mL
minimum concentration of killing (tobramycin [6]): 64 µg/mL
minimum concentration of killing (colistin [7]): 256 µg/mL
minimum concentration of killing (colistin [8]): 256 µg/mL

Pseudomonas aeruginosa clinical isolate ZG205710
minimum concentration of killing (tobramycin [1]): 256 µg/mL
minimum concentration eradicating biofilm below detection limit (colistin [2]): 256 µg/mL
minimum concentration of killing (colistin [3]): 256 µg/mL
minimum concentration of killing (tobramycin [4]): 16 µg/mL
minimum concentration eradicating biofilm below detection limit (tobramycin [5]): 256 µg/mL
minimum concentration of killing (tobramycin [6]): 4 µg/mL
minimum concentration of killing (colistin [7]): 256 µg/mL
minimum concentration of killing (colistin [8]): 256 µg/mL

Pseudomonas aeruginosa clinical isolate ZG301975
minimum concentration of killing (tobramycin [1]): 64 µg/mL
minimum concentration eradicating biofilm below detection limit (colistin [2]): 256 µg/mL
minimum concentration of killing (colistin [3]): 256 µg/mL
minimum concentration of killing (tobramycin [4]): 16 µg/mL
minimum concentration eradicating biofilm below detection limit (tobramycin [5]): 256 µg/mL
minimum concentration of killing (tobramycin [6]): ≤ 1 µg/mL
minimum concentration of killing (colistin [7]): 64 µg/mL
minimum concentration of killing (colistin [8]): 64 µg/mL

Pseudomonas aeruginosa clinical isolate ZG302359
minimum concentration of killing (tobramycin [1]): 256 µg/mL
minimum concentration eradicating biofilm below detection limit (colistin [2]): 256 µg/mL
minimum concentration of killing (colistin [3]): 256 µg/mL
minimum concentration of killing (tobramycin [4]): 64 µg/mL
minimum concentration eradicating biofilm below detection limit (tobramycin [5]): 1020 µg/mL
minimum concentration of killing (tobramycin [6]): ≤ 1 µg/mL
minimum concentration of killing (colistin [7]): 256 µg/mL
minimum concentration of killing (colistin [8]): 256 µg/mL

Pseudomonas aeruginosa clinical isolate ZG302367
minimum concentration of killing (tobramycin [1]): 256 µg/mL
minimum concentration eradicating biofilm below detection limit (colistin [2]): 256 µg/mL
minimum concentration of killing (colistin [3]): 256 µg/mL
minimum concentration of killing (tobramycin [4]): 64 µg/mL
minimum concentration eradicating biofilm below detection limit (tobramycin [5]): 256 µg/mL
minimum concentration of killing (tobramycin [6]): 4 µg/mL
minimum concentration of killing (colistin [7]): 256 µg/mL
minimum concentration of killing (colistin [8]): 256 µg/mL

Pseudomonas aeruginosa clinical isolate ZG302368
minimum concentration of killing (tobramycin [1]): 64 µg/mL
minimum concentration eradicating biofilm below detection limit (colistin [2]): 256 µg/mL
minimum concentration of killing (colistin [3]): 256 µg/mL
minimum concentration of killing (tobramycin [4]): 16 µg/mL
minimum concentration eradicating biofilm below detection limit (tobramycin [5]): 64 µg/mL
minimum concentration of killing (tobramycin [6]): 4 µg/mL
minimum concentration of killing (colistin [7]): 64 µg/mL
minimum concentration of killing (colistin [8]): 256 µg/mL

Pseudomonas aeruginosa clinical isolate ZG302370
minimum concentration of killing (tobramycin [1]): 64 µg/mL
minimum concentration eradicating biofilm below detection limit (colistin [2]): 1020 µg/mL
minimum concentration of killing (colistin [3]): 256 µg/mL
minimum concentration of killing (tobramycin [4]): 16 µg/mL
minimum concentration eradicating biofilm below detection limit (tobramycin [5]): 64 µg/mL
minimum concentration of killing (tobramycin [6]): 4 µg/mL
minimum concentration of killing (colistin [7]): 64 µg/mL
minimum concentration of killing (colistin [8]): 256 µg/mL

Pseudomonas aeruginosa clinical isolate ZG302383
minimum concentration of killing (tobramycin [1]): 256 µg/mL
minimum concentration eradicating biofilm below detection limit (colistin [2]): 1020 µg/mL
minimum concentration of killing (colistin [3]): 256 µg/mL
minimum concentration of killing (tobramycin [4]): 4 µg/mL
minimum concentration eradicating biofilm below detection limit (tobramycin [5]): 256 µg/mL
minimum concentration of killing (tobramycin [6]): ≤ 1 µg/mL
minimum concentration of killing (colistin [7]): 64 µg/mL
minimum concentration of killing (colistin [8]): 256 µg/mL
